Laboratory results as given in PMC4175344.
Changes are numbered by the printed parent chain. No constants are given. Whether binding was seen depends on the method and setting. In cells and extracts the contact can be indirect. Some results given as binding are weak or reduced against the parent protein; the word gives no strength. For part of these data: Tags and fused reporters may be left off the sequences shown. Blank lines part the entries; values can stand above or below the binder they belong to.

By UniProt entry, the sequences of proteins in these tests, tags left out.
UniProt P52947: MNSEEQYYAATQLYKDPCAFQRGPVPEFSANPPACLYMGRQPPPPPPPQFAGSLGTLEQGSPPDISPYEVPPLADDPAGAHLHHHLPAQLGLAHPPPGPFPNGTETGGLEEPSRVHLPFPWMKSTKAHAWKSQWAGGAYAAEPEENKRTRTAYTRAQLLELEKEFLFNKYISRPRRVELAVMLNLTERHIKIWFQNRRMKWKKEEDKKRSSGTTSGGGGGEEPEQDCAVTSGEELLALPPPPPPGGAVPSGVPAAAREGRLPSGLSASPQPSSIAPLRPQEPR
UniProt P29596: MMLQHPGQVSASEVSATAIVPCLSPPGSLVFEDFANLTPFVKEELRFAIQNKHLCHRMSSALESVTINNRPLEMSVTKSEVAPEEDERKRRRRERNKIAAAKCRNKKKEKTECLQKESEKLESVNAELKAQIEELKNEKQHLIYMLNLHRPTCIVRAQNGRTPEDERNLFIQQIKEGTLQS

Tests used:
[1] = molecular target: Flag-Pdx-1 (pancreatic duodenal homeobox-1) (UniProt P52947); experiment: co-IP; cells cotransfected with Flag-Pdx-1, GFP-ATF3 or GFP-ATF3(ΔC), with or without ethanol treatment; lysates immunoprecipitated with FLAG antibody, Western blotting; RIPA buffer lysis at 4 °C
[2] = molecular target: endogenous Pdx-1 (rat (endogenous in INS-1)) (UniProt P52947); experiment: co-IP; endogenous Pdx-1 immunoprecipitated from INS-1 cells treated with 100 mM ethanol in the presence or absence of Atf3 siRNA; 1 mg lysate, 2 μg antibody, immunoblot

binding [1]: no binding
B1: GFP-ATF3(ΔC), human ATF3(ΔC,101–181) with a C-terminal deletion (domain or fragment, UniProt P18847 1-100)
chain: MMLQHPGQVSASEVSASAIVPCLSPPGSLVFEDFANLTPFVKEELRFAIQNKHLCHRMSSALESVTVSDRPLGVSITKAEVAPEEDERKKRRRERNKIAA

binding [1]: binds
B2: GFP-ATF3 (human wild-type ATF3) (protein, UniProt P18847 1-181)
chain: MMLQHPGQVSASEVSASAIVPCLSPPGSLVFEDFANLTPFVKEELRFAIQNKHLCHRMSSALESVTVSDRPLGVSITKAEVAPEEDERKKRRRERNKIAAAKCRNKKKEKTECLQKESEKLESVNAELKAQIEELKNEKQHLIYMLNLHRPTCIVRAQNGRTPEDERNLFIQQIKEGTLQS

binding [2]: binds
B3: endogenous Atf3 (activating transcription factor 3) induced by ethanol (protein, UniProt P29596 1-181)
chain: B2 chain with S17T, V67I, S68N, D69N, G73E, V74M, I76V, A79S, K90R
